Among the data in the supplement of paper PMC6411743 are NP40-soluble protein abundance values, retold here.

Sequences of proteins named here, by UniProt entry; tags and fusion partners are left off. A change or cut given only in a name is not applied to a line headed by its entry.
UniProt O75934: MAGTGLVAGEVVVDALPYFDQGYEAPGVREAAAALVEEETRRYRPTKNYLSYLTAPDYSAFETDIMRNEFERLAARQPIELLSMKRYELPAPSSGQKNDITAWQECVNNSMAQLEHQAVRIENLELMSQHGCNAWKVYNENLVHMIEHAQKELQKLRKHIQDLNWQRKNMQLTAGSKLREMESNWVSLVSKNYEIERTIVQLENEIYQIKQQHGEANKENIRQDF
UniProt O75177, whole entry: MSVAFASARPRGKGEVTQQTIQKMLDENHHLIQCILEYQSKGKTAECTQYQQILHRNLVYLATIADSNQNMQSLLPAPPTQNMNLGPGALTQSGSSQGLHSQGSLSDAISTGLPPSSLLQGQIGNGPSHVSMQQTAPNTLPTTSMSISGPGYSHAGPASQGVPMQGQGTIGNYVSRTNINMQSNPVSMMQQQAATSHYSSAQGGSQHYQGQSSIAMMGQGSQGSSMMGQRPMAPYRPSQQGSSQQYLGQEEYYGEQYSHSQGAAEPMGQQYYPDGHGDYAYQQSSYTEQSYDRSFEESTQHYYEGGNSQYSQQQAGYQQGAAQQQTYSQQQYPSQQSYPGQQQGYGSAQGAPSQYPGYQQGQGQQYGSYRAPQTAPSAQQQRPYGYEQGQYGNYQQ
UniProt O60930: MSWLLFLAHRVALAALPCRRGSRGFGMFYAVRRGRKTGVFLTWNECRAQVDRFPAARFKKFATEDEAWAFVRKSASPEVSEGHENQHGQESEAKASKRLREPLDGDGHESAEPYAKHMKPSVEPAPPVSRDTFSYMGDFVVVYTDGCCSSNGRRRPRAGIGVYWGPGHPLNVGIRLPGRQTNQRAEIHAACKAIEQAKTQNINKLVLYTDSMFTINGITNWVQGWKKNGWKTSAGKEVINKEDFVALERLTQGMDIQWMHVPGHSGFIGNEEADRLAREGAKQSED
UniProt O94768: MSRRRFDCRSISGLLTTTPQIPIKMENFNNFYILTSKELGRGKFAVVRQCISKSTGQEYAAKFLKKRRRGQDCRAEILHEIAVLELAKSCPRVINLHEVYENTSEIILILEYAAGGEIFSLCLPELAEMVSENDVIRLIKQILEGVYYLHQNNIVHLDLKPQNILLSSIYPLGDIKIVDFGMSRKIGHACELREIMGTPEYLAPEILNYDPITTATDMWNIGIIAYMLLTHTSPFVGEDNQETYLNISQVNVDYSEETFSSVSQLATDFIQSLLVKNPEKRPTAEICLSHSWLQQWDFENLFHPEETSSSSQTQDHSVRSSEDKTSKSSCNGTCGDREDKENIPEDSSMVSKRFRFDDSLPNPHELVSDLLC
UniProt O95433, whole entry: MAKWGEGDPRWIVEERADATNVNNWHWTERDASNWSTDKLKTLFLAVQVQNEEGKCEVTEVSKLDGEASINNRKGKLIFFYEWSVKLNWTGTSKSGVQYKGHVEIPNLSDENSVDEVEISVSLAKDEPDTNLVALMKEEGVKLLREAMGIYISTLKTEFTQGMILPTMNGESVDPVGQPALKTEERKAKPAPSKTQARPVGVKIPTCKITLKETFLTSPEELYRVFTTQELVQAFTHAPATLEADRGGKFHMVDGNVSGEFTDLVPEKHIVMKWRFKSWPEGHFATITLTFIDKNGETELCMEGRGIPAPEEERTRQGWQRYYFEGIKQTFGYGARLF
UniProt O75367, whole entry: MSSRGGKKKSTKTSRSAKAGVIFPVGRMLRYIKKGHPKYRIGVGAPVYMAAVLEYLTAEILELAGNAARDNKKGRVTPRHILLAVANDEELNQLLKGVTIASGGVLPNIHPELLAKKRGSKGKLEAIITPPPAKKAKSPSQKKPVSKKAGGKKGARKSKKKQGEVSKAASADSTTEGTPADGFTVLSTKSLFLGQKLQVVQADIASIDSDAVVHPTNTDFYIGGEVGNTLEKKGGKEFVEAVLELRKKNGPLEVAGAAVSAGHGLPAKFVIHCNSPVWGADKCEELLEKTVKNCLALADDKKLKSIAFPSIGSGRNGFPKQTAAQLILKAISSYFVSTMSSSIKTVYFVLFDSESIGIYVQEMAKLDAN
UniProt O75570: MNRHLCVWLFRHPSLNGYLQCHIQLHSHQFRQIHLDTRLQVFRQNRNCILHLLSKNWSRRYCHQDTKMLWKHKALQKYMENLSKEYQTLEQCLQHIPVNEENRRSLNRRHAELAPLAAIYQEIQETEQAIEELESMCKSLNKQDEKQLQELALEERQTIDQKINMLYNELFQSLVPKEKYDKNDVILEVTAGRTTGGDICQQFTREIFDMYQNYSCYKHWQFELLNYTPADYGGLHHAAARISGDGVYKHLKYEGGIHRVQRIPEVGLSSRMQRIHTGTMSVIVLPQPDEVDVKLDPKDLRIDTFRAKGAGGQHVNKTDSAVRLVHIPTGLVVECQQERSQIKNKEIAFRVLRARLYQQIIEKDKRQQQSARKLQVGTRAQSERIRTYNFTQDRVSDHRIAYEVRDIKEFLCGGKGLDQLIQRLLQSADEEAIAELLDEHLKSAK
UniProt O75907: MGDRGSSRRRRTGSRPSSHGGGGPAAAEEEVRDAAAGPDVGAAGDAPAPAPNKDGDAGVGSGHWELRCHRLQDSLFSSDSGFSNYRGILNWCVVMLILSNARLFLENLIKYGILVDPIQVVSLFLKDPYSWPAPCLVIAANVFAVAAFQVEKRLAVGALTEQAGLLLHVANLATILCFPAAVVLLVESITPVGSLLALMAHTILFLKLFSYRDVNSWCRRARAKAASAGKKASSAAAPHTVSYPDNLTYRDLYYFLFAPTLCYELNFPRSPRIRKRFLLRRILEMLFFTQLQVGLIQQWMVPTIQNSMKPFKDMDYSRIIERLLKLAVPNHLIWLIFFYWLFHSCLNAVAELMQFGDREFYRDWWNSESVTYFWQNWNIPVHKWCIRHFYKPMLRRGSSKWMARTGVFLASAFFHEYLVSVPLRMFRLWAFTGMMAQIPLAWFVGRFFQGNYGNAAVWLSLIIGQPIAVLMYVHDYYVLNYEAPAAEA
UniProt O75419: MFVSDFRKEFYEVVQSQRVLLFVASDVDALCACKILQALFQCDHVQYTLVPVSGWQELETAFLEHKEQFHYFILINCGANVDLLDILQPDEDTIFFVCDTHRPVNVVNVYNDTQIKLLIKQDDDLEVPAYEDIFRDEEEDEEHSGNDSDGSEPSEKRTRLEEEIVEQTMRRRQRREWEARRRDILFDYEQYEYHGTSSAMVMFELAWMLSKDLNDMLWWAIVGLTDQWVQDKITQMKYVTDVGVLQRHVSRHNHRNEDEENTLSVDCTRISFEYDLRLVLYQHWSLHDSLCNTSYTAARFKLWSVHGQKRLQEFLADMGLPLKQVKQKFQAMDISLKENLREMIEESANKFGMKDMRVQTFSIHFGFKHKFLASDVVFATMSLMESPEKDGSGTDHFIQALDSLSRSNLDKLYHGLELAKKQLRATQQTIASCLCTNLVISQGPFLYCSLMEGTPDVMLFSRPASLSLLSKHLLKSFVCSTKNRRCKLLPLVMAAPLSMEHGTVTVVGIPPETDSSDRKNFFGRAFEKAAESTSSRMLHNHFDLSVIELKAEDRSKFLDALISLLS
UniProt O95163: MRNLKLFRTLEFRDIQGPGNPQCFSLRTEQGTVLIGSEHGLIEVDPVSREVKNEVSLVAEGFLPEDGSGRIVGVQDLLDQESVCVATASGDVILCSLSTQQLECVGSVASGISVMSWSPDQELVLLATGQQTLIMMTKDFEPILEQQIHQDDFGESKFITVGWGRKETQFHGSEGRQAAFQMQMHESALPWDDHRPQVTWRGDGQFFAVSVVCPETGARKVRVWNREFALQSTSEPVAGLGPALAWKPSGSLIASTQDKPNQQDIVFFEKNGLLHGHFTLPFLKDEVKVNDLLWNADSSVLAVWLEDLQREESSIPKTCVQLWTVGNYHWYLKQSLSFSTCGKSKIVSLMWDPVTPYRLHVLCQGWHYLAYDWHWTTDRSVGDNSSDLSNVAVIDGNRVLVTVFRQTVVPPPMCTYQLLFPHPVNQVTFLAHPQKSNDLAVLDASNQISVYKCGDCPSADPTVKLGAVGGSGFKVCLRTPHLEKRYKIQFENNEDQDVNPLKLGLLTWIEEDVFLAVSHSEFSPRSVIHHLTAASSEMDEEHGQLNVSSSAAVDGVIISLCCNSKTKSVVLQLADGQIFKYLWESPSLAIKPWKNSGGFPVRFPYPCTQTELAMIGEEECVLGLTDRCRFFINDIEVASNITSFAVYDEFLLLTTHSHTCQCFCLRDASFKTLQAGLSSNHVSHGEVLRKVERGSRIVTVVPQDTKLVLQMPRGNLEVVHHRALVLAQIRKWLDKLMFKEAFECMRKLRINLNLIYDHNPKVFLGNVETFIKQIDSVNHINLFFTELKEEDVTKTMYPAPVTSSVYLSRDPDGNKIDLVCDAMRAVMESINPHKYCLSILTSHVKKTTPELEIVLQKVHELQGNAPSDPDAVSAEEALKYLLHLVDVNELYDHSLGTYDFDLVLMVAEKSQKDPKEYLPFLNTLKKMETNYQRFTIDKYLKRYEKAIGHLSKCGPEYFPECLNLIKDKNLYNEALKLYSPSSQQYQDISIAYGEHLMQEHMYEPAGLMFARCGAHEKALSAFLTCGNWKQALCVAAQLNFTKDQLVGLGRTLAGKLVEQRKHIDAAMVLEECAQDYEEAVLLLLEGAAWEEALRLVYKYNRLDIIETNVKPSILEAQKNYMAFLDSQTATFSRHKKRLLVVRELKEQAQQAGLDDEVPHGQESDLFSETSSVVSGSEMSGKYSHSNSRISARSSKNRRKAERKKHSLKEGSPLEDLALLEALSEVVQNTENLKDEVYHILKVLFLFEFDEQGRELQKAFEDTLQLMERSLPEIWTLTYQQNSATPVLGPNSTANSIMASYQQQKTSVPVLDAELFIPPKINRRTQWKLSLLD
UniProt O95619, whole entry: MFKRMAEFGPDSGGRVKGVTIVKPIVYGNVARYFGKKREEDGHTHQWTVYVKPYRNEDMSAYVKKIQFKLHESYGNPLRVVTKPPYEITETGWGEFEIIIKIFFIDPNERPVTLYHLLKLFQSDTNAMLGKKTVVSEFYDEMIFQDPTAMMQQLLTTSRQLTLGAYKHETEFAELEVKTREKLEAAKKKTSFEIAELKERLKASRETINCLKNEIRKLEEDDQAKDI
UniProt O94973, whole entry: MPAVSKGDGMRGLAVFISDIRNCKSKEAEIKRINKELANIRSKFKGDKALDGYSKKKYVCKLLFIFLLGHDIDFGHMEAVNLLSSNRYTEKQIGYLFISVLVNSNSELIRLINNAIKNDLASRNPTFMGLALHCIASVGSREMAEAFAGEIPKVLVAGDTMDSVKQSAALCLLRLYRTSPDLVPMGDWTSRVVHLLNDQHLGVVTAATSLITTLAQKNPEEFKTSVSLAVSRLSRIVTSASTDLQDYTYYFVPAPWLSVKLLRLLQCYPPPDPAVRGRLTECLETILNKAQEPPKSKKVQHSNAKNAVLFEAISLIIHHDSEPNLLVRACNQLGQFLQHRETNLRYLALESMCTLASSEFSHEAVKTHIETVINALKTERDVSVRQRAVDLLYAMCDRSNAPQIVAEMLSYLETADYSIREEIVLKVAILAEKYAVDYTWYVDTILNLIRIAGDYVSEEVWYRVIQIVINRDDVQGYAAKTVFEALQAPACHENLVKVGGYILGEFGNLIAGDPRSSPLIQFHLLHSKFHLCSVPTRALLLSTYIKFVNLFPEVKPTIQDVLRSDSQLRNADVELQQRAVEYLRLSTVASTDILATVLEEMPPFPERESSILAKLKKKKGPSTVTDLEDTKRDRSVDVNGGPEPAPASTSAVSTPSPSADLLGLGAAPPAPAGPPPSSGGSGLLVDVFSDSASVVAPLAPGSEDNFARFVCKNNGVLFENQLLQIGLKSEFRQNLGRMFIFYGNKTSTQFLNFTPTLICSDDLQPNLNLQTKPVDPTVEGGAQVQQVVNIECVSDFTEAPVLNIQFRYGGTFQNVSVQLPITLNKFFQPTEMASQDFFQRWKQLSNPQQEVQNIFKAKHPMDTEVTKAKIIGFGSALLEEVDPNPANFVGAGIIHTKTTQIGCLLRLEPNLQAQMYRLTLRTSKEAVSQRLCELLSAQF
UniProt O75461: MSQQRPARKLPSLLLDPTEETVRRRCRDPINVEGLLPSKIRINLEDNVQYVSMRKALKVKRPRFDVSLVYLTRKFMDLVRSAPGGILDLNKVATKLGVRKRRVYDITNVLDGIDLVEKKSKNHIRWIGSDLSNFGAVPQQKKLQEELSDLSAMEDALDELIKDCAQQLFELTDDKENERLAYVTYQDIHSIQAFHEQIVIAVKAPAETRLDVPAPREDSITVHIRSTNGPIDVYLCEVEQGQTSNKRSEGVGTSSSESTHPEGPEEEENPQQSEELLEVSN
UniProt O60671: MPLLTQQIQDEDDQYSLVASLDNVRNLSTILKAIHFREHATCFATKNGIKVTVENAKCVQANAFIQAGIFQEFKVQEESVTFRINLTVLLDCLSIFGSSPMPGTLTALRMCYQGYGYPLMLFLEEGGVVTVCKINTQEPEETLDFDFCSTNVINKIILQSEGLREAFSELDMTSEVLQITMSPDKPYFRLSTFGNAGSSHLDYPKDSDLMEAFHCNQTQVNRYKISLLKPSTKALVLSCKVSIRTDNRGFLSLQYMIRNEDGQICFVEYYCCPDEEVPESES

Compound in this assay: Nc1ncnc2c1ncn2[C@@H]1O[C@H](COP(=O)(O)OP(=O)(O)NP(=O)(O)O)[C@@H](O)[C@H]1O [adenylyl imidodiphosphate]
The experiment in a line: NP40-soluble protein abundance relative to vehicle (solubility fold change) (ratio); higher = more soluble protein in presence of AMP-PNP. In short, it runs like this: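 Eight concentrations, 0.1 to 10 mM, were tested on Jurkat crude lysate for 10 min at room temperature and then 3 min at 37 °C, in three independent experiments. The lysate was solubilised with 0.8% NP40 and benzonase, ultracentrifuged, and the supernatant TMT-labelled for LC-MS/MS. Each value is the fold change against the detergent-processed vehicle in its own replicate, from vsn-normalised intensities.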

± gives the standard deviation of the averaged measurements. Only a part is listed here, and it is no random draw. Most values lie at the level of the controls, where differences are scatter.

As to UniProt O95571 and related entries, the NP40-soluble protein abundance stood at 1.01 ± 0.025 (concentration: 0.1mM) and 0.968 ± 0.014 (concentration: 0.5mM).

On to UniProt O94766 and related entries, for which the NP40-soluble protein abundance (concentration: 0.1mM) amounted to 1.01 ± 0.059 and the NP40-soluble protein abundance (concentration: 0.5mM) amounted to 0.962 ± 0.05.

With UniProt O75925 and related entries, the NP40-soluble protein abundance by setting is: (concentration: 0.1mM) 1.06 ± 0.075; (concentration: 0.5mM) 1.02 ± 0.014.

UniProt O94763: the NP40-soluble protein abundance amounted to 1 ± 0.044 (concentration: 0.1mM) and 1.05 ± 0.068 (concentration: 0.5mM).

As for RNASEH2A (UniProt O75792), the NP40-soluble protein abundance was 0.991 ± 0.018 (concentration: 0.1mM) and 1 ± 0.043 (concentration: 0.5mM).

Turning to UniProt O94842 and related entries, the NP40-soluble protein abundance was 1.03 ± 0.048 (concentration: 0.1mM) and 1.02 ± 0.053 (concentration: 0.5mM).

For the target UniProt O75934, the NP40-soluble protein abundance is 1.01 ± 0.04 (concentration: 0.1mM) and 1.03 ± 0.07 (concentration: 0.5mM).

UniProt O94822 and related entries: the NP40-soluble protein abundance runs as follows: (concentration: 0.1mM) 1.01 ± 0.021; (concentration: 0.5mM) 0.992 ± 0.04.

CAND2 (UniProt O75155): the NP40-soluble protein abundance came out at 1.02 ± 0.016 (concentration: 0.1mM) and 1.02 ± 0.028 (concentration: 0.5mM).

As to SS18L1 (UniProt O75177), the NP40-soluble protein abundance (concentration: 0.1mM) stood at 0.997 ± 0.047 and the NP40-soluble protein abundance (concentration: 0.5mM) is 0.986 ± 0.035.

For the target RNASEH1 (UniProt O60930), the NP40-soluble protein abundance (concentration: 0.1mM) came out at 1.04 ± 0.05 and the NP40-soluble protein abundance (concentration: 0.5mM) came to 1.03 ± 0.026.

UniProt O94768: the NP40-soluble protein abundance is, setting by setting: (concentration: 0.1mM) 1.08 ± 0.0088; (concentration: 0.5mM) 1.08 ± 0.035.

On to ZBTB11 (UniProt O95625), for which the NP40-soluble protein abundance worked out at 1.01 ± 0.022 (concentration: 0.1mM) and 0.986 ± 0.027 (concentration: 0.5mM).

AHSA1 (UniProt O95433): the NP40-soluble protein abundance stood at 1 ± 0.049 (concentration: 0.1mM) and 0.978 ± 0.036 (concentration: 0.5mM).

For the target UniProt O94855 and related entries, the NP40-soluble protein abundance (concentration: 0.1mM) stood at 1.01 ± 0.05 and the NP40-soluble protein abundance (concentration: 0.5mM) was 1 ± 0.025.

Take MAFK (UniProt O60675): the NP40-soluble protein abundance was determined as 0.987 ± 0.015 (concentration: 0.1mM) and 1 ± 0.012 (concentration: 0.5mM).

On to SNRNP200 (UniProt O75643), for which the NP40-soluble protein abundance was 1.05 ± 0.055 (concentration: 0.1mM) and 1.02 ± 0.13 (concentration: 0.5mM).

In the case of UniProt O95167 and related entries, the NP40-soluble protein abundance came out at 1.01 ± 0.013 (concentration: 0.1mM) and 1.01 ± 0.029 (concentration: 0.5mM).

As to SNX2 (UniProt O60749), the NP40-soluble protein abundance runs as follows: (concentration: 0.1mM) 0.973 ± 0.022; (concentration: 0.5mM) 0.9865 ± 0.0061.

Turning to PSMG1 (UniProt O95456), the NP40-soluble protein abundance (concentration: 0.1mM) turned out to be 1.03 ± 0.011 and the NP40-soluble protein abundance (concentration: 0.5mM) came to 1.02 ± 0.028.

For the target UniProt O94804, the NP40-soluble protein abundance was 0.968 ± 0.037 (concentration: 0.1mM) and 0.98 ± 0.033 (concentration: 0.5mM).

FARS2 (UniProt O95363): the NP40-soluble protein abundance was found to be 1.02 ± 0.034 (concentration: 0.1mM) and 1 ± 0.11 (concentration: 0.5mM).

As for UniProt O75367 and related entries, the NP40-soluble protein abundance was 0.981 ± 0.01 (concentration: 0.1mM) and 0.969 ± 0.042 (concentration: 0.5mM).

Consider UniProt O60784 and related entries, for which the NP40-soluble protein abundance runs as follows: (concentration: 0.1mM) 0.994 ± 0.017; (concentration: 0.5mM) 0.974 ± 0.03.

Turning to UniProt O95071 and related entries, the NP40-soluble protein abundance worked out at 1.03 ± 0.055 (concentration: 0.1mM) and 1 ± 0.046 (concentration: 0.5mM).

Turning to MTRF1 (UniProt O75570), the NP40-soluble protein abundance by setting is: (concentration: 0.1mM) 1.02 ± 0.017; (concentration: 0.5mM) 0.983 ± 0.037.

Regarding RP2 (UniProt O75695), the NP40-soluble protein abundance is, setting by setting: (concentration: 0.1mM) 0.994 ± 0.042; (concentration: 0.5mM) 0.962 ± 0.036.

On to MFN2 (UniProt O95140), for which the NP40-soluble protein abundance is 1.02 ± 0.045 (concentration: 0.1mM) and 0.991 ± 0.063 (concentration: 0.5mM).

With CPD (UniProt O75976), the NP40-soluble protein abundance is, setting by setting: (concentration: 0.1mM) 0.955 ± 0.028; (concentration: 0.5mM) 0.977 ± 0.019.

With BANF1 (UniProt O75531), the NP40-soluble protein abundance runs as follows: (concentration: 0.1mM) 2.96 ± 0.91; (concentration: 0.5mM) 2.68 ± 0.81.

On to UniProt O95479 and related entries, for which the NP40-soluble protein abundance amounted to 0.993 ± 0.029 (concentration: 0.1mM) and 0.965 ± 0.031 (concentration: 0.5mM).

As for UniProt O75822 and related entries, the NP40-soluble protein abundance by setting is: (concentration: 0.1mM) 0.892 ± 0.04; (concentration: 0.5mM) 0.896 ± 0.04.

In the case of CLPX (UniProt O76031), the NP40-soluble protein abundance came out at 0.977 ± 0.041 (concentration: 0.1mM) and 0.969 ± 0.042 (concentration: 0.5mM).

Turning to DGAT1 (UniProt O75907), the NP40-soluble protein abundance is, setting by setting: (concentration: 0.1mM) 1.01 ± 0.083; (concentration: 0.5mM) 0.952 ± 0.086.

As for UniProt O60313-2|E5KLJ5, the NP40-soluble protein abundance reads like this: (concentration: 0.1mM) 0.987 ± 0.0098; (concentration: 0.5mM) 0.9961 ± 0.0067.

For UniProt O75419 and related entries, the NP40-soluble protein abundance (concentration: 0.1mM) is 1.02 ± 0.023 and the NP40-soluble protein abundance (concentration: 0.5mM) was 0.979 ± 0.07.

Take TUSC2 (UniProt O75896): the NP40-soluble protein abundance runs as follows: (concentration: 0.1mM) 1.01 ± 0.032; (concentration: 0.5mM) 1 ± 0.022.

In the case of SLU7 (UniProt O95391), the NP40-soluble protein abundance (concentration: 0.1mM) is 1.011 ± 0.0054 and the NP40-soluble protein abundance (concentration: 0.5mM) came out at 0.989 ± 0.026.

With UniProt O95219 and related entries, the NP40-soluble protein abundance by setting is: (concentration: 0.1mM) 0.996 ± 0.017; (concentration: 0.5mM) 1.02 ± 0.027.

UniProt O95425 and related entries: the NP40-soluble protein abundance (concentration: 0.1mM) stood at 0.975 ± 0.048 and the NP40-soluble protein abundance (concentration: 0.5mM) amounted to 1.04 ± 0.02.

For SASH3 (UniProt O75995), the NP40-soluble protein abundance runs as follows: (concentration: 0.1mM) 0.986 ± 0.017; (concentration: 0.5mM) 0.994 ± 0.028.

On to UniProt O95163, for which the NP40-soluble protein abundance by setting is: (concentration: 0.1mM) 1 ± 0.032; (concentration: 0.5mM) 0.983 ± 0.082.

For UniProt O60861 and related entries, the NP40-soluble protein abundance (concentration: 0.1mM) is 1.02 ± 0.019 and the NP40-soluble protein abundance (concentration: 0.5mM) turned out to be 1.02 ± 0.039.

For the target UniProt O75582 and related entries, the NP40-soluble protein abundance runs as follows: (concentration: 0.1mM) 1 ± 0.041; (concentration: 0.5mM) 1.01 ± 0.011.

On to PCF11 (UniProt O94913), for which the NP40-soluble protein abundance was found to be 0.997 ± 0.016 (concentration: 0.1mM) and 1 ± 0.031 (concentration: 0.5mM).

Regarding RPP14 (UniProt O95059), the NP40-soluble protein abundance (concentration: 0.1mM) turned out to be 0.975 ± 0.03 and the NP40-soluble protein abundance (concentration: 0.5mM) turned out to be 1.01 ± 0.043.

As for UniProt O95619 and related entries, the NP40-soluble protein abundance by setting is: (concentration: 0.1mM) 1.01 ± 0.052; (concentration: 0.5mM) 1.03 ± 0.063.

On to PHF2 (UniProt O75151), for which the NP40-soluble protein abundance stood at 0.978 ± 0.015 (concentration: 0.1mM) and 0.992 ± 0.031 (concentration: 0.5mM).

Consider “UniProt O95248-4|G5E933 and related entries”, for which the NP40-soluble protein abundance by setting is: (concentration: 0.1mM) 1.019 ± 0.0067; (concentration: 0.5mM) 0.991 ± 0.023.

UniProt O75600 and related entries: the NP40-soluble protein abundance runs as follows: (concentration: 0.1mM) 0.989 ± 0.043; (concentration: 0.5mM) 0.968 ± 0.033.

On to UniProt O94973 and related entries, for which the NP40-soluble protein abundance (concentration: 0.1mM) was found to be 1.04 ± 0.018 and the NP40-soluble protein abundance (concentration: 0.5mM) is 1.04 ± 0.032.

Take UniProt O60664 and related entries: the NP40-soluble protein abundance amounted to 0.937 ± 0.033 (concentration: 0.1mM) and 1.03 ± 0.072 (concentration: 0.5mM).

In the case of GGCT (UniProt O75223), the NP40-soluble protein abundance worked out at 0.983 ± 0.021 (concentration: 0.1mM) and 1.04 ± 0.066 (concentration: 0.5mM).

E2F6 (UniProt O75461): the NP40-soluble protein abundance by setting is: (concentration: 0.1mM) 1.035 ± 0.01; (concentration: 0.5mM) 0.976 ± 0.066.

On to PPM1B (UniProt O75688), for which the NP40-soluble protein abundance was found to be 0.995 ± 0.031 (concentration: 0.1mM) and 0.993 ± 0.013 (concentration: 0.5mM).

Regarding TRMU (UniProt O75648), the NP40-soluble protein abundance is, setting by setting: (concentration: 0.1mM) 1.03 ± 0.051; (concentration: 0.5mM) 0.995 ± 0.041.

In the case of NADK (UniProt O95544), the NP40-soluble protein abundance reads like this: (concentration: 0.1mM) 1.01 ± 0.03; (concentration: 0.5mM) 1.02 ± 0.023.

IDH1 (UniProt O75874): the NP40-soluble protein abundance (concentration: 0.1mM) came to 0.981 ± 0.021 and the NP40-soluble protein abundance (concentration: 0.5mM) turned out to be 0.968 ± 0.036.

Take UniProt O75865 and related entries: the NP40-soluble protein abundance stood at 1.04 ± 0.014 (concentration: 0.1mM) and 1.04 ± 0.045 (concentration: 0.5mM).

As for UniProt O60671 and related entries, the NP40-soluble protein abundance by setting is: (concentration: 0.1mM) 1.01 ± 0.059; (concentration: 0.5mM) 0.995 ± 0.057.
